Not every detail of the peptide structures is certain; ends, links or a residue may be inferred. Some results were stated once for a whole list of compounds, not compound by compound. Residues, ends and D or L forms follow the SMILES beside them.
Test system: NIH/Swiss mice
Experiment: acute food intake assay, lean overnight-fasted NIH/Swiss mice, intraperitoneal injection
Assay type: in vivo, mouse
Conditions: for Food Intake Inhibition: mouse assay, dose of 200 mg/kg, measured at 60 minutes; for change in intake (effectiveness): food intake over 30 min, mice
Description: The effect of NMX Peptides, FNX Peptides or NMX Receptor agonists on food intake when systemically administered was investigated using an acute food intake assay. This assay measured food consumption in lean subjects. Lean, group-housed, overnight-fasted NIH/Swiss mice. All in vivo tests were performed with peripheral injections of peptide. […] The dose-response data are presented herein. The protocol is described below. Female NIH/Swiss mice (8-24 weeks old) were group housed with a 12:12 hour light:dark cycle, with lights on at 0300. Water and a standard pelleted mouse chow diet are available ad libitum, except as noted. Animals are fasted starting at approximately 1530 hrs, 1 day prior to experiment. At time=0 min, all animals are given an intraperitoneal injection of vehicle or polypeptide in a volume of 200 uL/mouse and immediately given a pre-weighed amount (10-15 g) of the standard chow. Food is removed and weighed at 30, 60, and 120 minutes to determine the amount of food consumed. The effects of treatment on food intake are expressed as % change relative to control.

## CC(C)C[C@H](NC(=O)[C@H](Cc1ccccc1)NC(=O)[C@H](Cc1ccc(O)cc1)NC(=O)CNC(=O)[C@H](CO)NC(=O)[C@H](Cc1ccc(O)cc1)NC(=O)[C@H](Cc1c[nH]cn1)NC(=O)[C@H](Cc1ccccc1)NC(=O)[C@H](CC(C)C)NC(=O)[C@@H](N)Cc1ccccc1)C(=O)N[C@@H](Cc1ccccc1)C(=O)N[C@@H](CCCNC(=N)N)C(=O)N1CCC[C@H]1C(=O)N[C@@H](CCCNC(=N)N)C(=O)N[C@@H](CC(N)=O)C(N)=O [Des-(Lys7-Gly30)FN38 or FN15] (H-FLFHYSGYFLFRPRN-NH2; N-terminus and C-terminus assumed)
  Food Intake Inhibition: −40%

## CC(C)C[C@H](NC(=O)[C@H](CCCCN)NC(=O)[C@H](CCC(N)=O)NC(=O)[C@@H](NC(=O)[C@H](CCCCN)NC(=O)[C@H](CO)NC(=O)[C@H](Cc1ccc(O)cc1)NC(=O)[C@H](Cc1c[nH]cn1)NC(=O)[C@H](Cc1ccccc1)NC(=O)[C@H](CC(C)C)NC(=O)[C@@H](N)Cc1ccccc1)[C@@H](C)O)C(=O)NCC(=O)N[C@@H](CCCCN)C(=O)N[C@@H](CO)C(=O)N[C@@H](CC(N)=O)C(=O)N[C@H](C(=O)N[C@H](C(=O)N[C@@H](CCC(=O)O)C(=O)N[C@@H](CCC(=O)O)C(=O)N[C@@H](CC(C)C)C(=O)N[C@@H](CCC(N)=O)C(=O)N[C@@H](CO)C(=O)N1CCC[C@H]1C(=O)N[C@@H](Cc1ccccc1)C(=O)N[C@@H](C)C(=O)N[C@@H](CO)C(=O)N[C@@H](CCC(N)=O)C(=O)N[C@@H](CO)C(=O)N[C@@H](CCCNC(=N)N)C(=O)NCC(=O)N[C@@H](Cc1ccc(O)cc1)C(=O)N[C@@H](Cc1ccccc1)C(=O)N[C@H](C(=O)N[C@@H](Cc1ccccc1)C(=O)N[C@@H](CCCNC(=N)N)C(=O)N1CCC[C@H]1C(=O)N[C@@H](CCCNC(=N)N)C(=O)N[C@@H](CC(N)=O)C(N)=O)C(C)C)C(C)C)C(C)C [[Val33]FN38] (H-FLFHYSKTQKLGKSNVVEELQSPFASQSRGYFVFRPRN-NH2; N-terminus and C-terminus assumed)
  Food Intake Inhibition: −51%

## CC[C@H](C)[C@H](NC(=O)[C@@H](NC(=O)CNC(=O)CNC(=O)[C@@H]1CCCN1C(=O)[C@@H](NC(=O)[C@H](CCC(N)=O)NC(=O)[C@@H](NC(=O)[C@H](CCC(=O)O)NC(=O)[C@H](CCC(=O)O)NC(=O)[C@H](CC(=O)O)NC(=O)[C@@H](N)CO)C(C)C)C(C)C)C(C)C)C(=O)N[C@@H](CO)C(=O)N[C@@H](CC(N)=O)C(=O)NCC(=O)N[C@@H](Cc1ccc(O)cc1)C(=O)N[C@@H](Cc1ccccc1)C(=O)N[C@@H](CC(C)C)C(=O)N[C@@H](Cc1ccccc1)C(=O)N[C@@H](CCCNC(=N)N)C(=O)N1CCC[C@H]1C(=O)N[C@@H](CCCNC(=N)N)C(=O)N[C@@H](CC(N)=O)C(N)=O [Compound 163452, reference compound] (H-SDEEVQVPGGVISNGYFLFRPRN-NH2; N-terminus assumed)
  change in intake (effectiveness): > −90%

## CC(C)C[C@H](NC(=O)[C@H](CCCCN)NC(=O)[C@H](CCC(N)=O)NC(=O)[C@@H](NC(=O)[C@H](CCCCN)NC(=O)[C@H](CO)NC(=O)[C@H](Cc1ccc(O)cc1)NC(=O)[C@H](Cc1c[nH]cn1)NC(=O)[C@H](Cc1ccccc1)NC(=O)[C@H](CC(C)C)NC(=O)[C@@H](N)Cc1ccccc1)[C@@H](C)O)C(=O)NCC(=O)N[C@@H](CCCCN)C(=O)N[C@@H](CO)C(=O)N[C@@H](CC(N)=O)C(=O)N[C@H](C(=O)N[C@H](C(=O)N[C@@H](CCC(=O)O)C(=O)N[C@@H](CCC(=O)O)C(=O)N[C@@H](CC(C)C)C(=O)N[C@@H](CCC(N)=O)C(=O)N[C@@H](CO)C(=O)N1CCC[C@H]1C(=O)N[C@@H](Cc1ccccc1)C(=O)N[C@@H](C)C(=O)N[C@@H](CO)C(=O)N[C@@H](CCC(N)=O)C(=O)N[C@@H](CO)C(=O)N[C@@H](CCCNC(=N)N)C(=O)NCC(=O)N[C@@H](Cc1ccc(O)cc1)C(=O)N[C@@H](Cc1ccccc1)C(=O)N[C@@H](CC(C)C)C(=O)N[C@@H](Cc1ccccc1)C(=O)N[C@@H](CCCNC(=N)N)C(=O)N1CCC[C@H]1C(=O)N[C@@H](CCCNC(=N)N)C(=O)N[C@@H](CC(N)=O)C(N)=O)C(C)C)C(C)C [Compound 163661] (H-FLFHYSKTQKLGKSNVVEELQSPFASQSRGYFLFRPRN-NH2; N-terminus assumed)
  change in intake (effectiveness): > −90%
